# Measured values: PubChem BioAssay AID720540 (National Center for Advancing Translational Sciences (NCATS), 2013)
# By UniProt entry, the sequences of proteins in these tests, tags left out. Where a name states a change or a piece, a line headed by the entry shows the natural chain unless it says otherwise.
# UniProt O00167: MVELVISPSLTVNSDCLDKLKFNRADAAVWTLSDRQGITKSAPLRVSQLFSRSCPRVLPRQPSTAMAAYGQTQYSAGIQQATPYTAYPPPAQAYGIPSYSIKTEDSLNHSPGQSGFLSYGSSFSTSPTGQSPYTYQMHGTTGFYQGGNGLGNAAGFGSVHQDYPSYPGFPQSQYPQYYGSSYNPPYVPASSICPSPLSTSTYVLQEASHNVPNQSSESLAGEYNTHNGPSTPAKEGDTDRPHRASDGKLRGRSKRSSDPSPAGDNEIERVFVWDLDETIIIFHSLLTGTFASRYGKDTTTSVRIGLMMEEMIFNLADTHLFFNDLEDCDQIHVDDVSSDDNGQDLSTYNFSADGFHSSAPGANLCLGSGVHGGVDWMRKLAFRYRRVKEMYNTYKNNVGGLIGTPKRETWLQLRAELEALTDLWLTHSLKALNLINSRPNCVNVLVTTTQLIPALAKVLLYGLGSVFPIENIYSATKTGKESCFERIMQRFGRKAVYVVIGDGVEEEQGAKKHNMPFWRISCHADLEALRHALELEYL
# The campaign covered roughly 1,300 compounds. About 460 (35%) were called active. Inconclusive means that the source gave no clear call. Such entries were picked first, then a sample of the others. The call rests on the fitted dose curve; in most records, active means well fitted inhibition curve with a large enough effect; inconclusive means small, poorly fitted or top-dose-only effect; inactive means flat fitted curve, though single readings scatter. Potencies beside an inconclusive call are fits to weak or partial responses and may not hold up.
# Target: Protein phosphatase EYA2 (Homo sapiens) (UniProt O00167)
# Test: qHTS for Inhibitors of the Phosphatase Activity of Eya2: Confirmatory Assay for Cherry-picked Compounds; further: nearly all actives have a fitted effect of over 65% in size
# Conditions: purified EYA2 phosphatase activity, qHTS confirmation; series mostly up to 46.1 µM
# Method in brief: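 Eya2 (0.2 uM working solution) preincubated 10 min at room temperature with compound in pH 7.5 HEPES buffer with MgCl2, BSA, DTT. OMFP added (50 uM working solution), 10 min more; fluorescence 485/525 nm, normalized to EGTA and DMSO.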
# Potency means the concentration at half of the fitted maximal effect.
row,Compound,Potency
1,CC1=NN(c2ccccc2)C(=O)/C1=C\C=C1/N(C)c2ccccc2C1(C)C,active: 7.57 µM
2,C=CCN1C(=O)C(=Cc2ccc3c(c2)CCC3)SC1=S,"inconclusive: 8.49 µM [inhibitor, partial curve]"
3,COc1ccc(-c2cn3c(C)c(C(=O)NCc4ccc5c(c4)OCO5)sc3n2)cc1,inactive
4,C=CCn1c(C)cc(C(=O)COc2ccc(N(C)S(=O)(=O)c3ccc(NC(C)=O)cc3)cc2)c1C,"inconclusive: 19 µM [inhibitor, partial curve]"
5,COc1cc(OC)c(NC(=O)c2ccc3c(SCC(=O)O)c4c(nc3c2)CCCC4)cc1Cl,"inconclusive: 19 µM [inhibitor, partial curve]"
6,Cc1cc(C)c2c(c1)NC(C(=O)O)C1CC=CC21 (stereo not given),"inconclusive: 19 µM [inhibitor, partial curve]"
7,Cc1ccccc1C(=O)Nc1cccc(C(=O)Nc2ccccc2C(=O)O)c1,"inconclusive: 19 µM [inhibitor, partial curve]"
8,CC(=O)c1c(C)oc2c1cc(NS(=O)(=O)c1ccc(C(=O)O)cc1)c1ccccc12,"inconclusive: 19 µM [inhibitor, single point]"
9,O=C(Cn1c(C(=O)N2CCc3ccccc3C2)cc2sccc21)c1ccccc1,inactive
10,CS(=O)(=O)c1ccc(C(=O)Nc2nc(-c3ccco3)c(-c3ccco3)s2)cc1,active: 12 µM
11,CC1(C)CC(=O)C=C(c2ccc(-c3cnn(Cc4ccccc4)c3)cc2)C1=O,"inconclusive: 16.9 µM [inhibitor, partial curve]"
12,CNc1ccc(C=C2c3ccccc3-c3ccccc32)cc1,active: 12 µM
13,CCOC(=O)c1c2c(n3ccccc13)C(=O)c1ccccc1C2=O,"inconclusive: 2.39 µM [inhibitor, full curve]"
14,CCc1c(C)nc(Nc2nc(C)c3ccc(OC)cc3n2)[nH]c1=O,active: 3.79 µM
15,CCOc1ccc(S(=O)(=O)N2CCN(C)CC2)cc1NC(=O)c1ccccc1F,active: 8.49 µM
16,Cc1csc(NC(=O)CSc2sc3c(O)cc(=O)[nH]c3c2C#N)n1,"inconclusive: 16.9 µM [inhibitor, partial curve]"
17,CCc1ccc2oc(-c3ccc(OC)cc3)cc(=Nc3c(C)n(C)n(-c4ccccc4)c3=O)c2c1,active: 16.9 µM
18,Cc1cccc(C)c1Nc1c(-c2ccccn2)nc2ccccn12,active: 7.57 µM
19,CCOc1ccc(Nc2nc(N)nc(CN(C)C3CCCCC3)n2)cc1,inactive
20,CCN(CC)c1ccc(NC(=O)C2CC3CCC2C3)cc1 (stereo not given),"inconclusive: 16.9 µM [inhibitor, partial curve]"
21,Clc1ccc(-c2ccc(CNCc3ccccn3)o2)cc1,active: 15.1 µM
22,Cc1cccc2sc(NNC(=O)c3ccc(S(=O)(=O)N4CCCC(C)C4)cc3)nc12 (stereo not given),"inconclusive: 19 µM [inhibitor, partial curve]"
23,NC(N)=Nc1nc2cc([N+](=O)[O-])ccc2o1,inactive

row,Compound,Potency
1,Cn1c(=O)n(CCO)c(=O)c2c1nc(Br)n2Cc1ccccc1,inactive
2,CCOC(=O)N1CCN(S(=O)(=O)c2ccc(C(=O)NNc3nc4c(C)cc(C)cc4s3)cc2)CC1,"inconclusive: 13.5 µM [inhibitor, partial curve]"
3,CCC(=O)Nc1nc2c(OC)ccc(OC)c2s1,inactive
4,CCOC(=O)C1=C[C@@H](C2CCCCC2)N(S(=O)(=O)c2ccc([N+](=O)[O-])cc2)[C@H]1c1ccccc1,"inconclusive: 6.75 µM [inhibitor, partial curve]"
5,Cc1cc(NC(=O)c2cccc(N3C(=O)CCC3=O)c2)no1,inactive
6,Cc1oc2c(C)c3oc(=O)c(CCC(=O)N[C@@H](CC(C)C)C(=O)O)c(C)c3cc2c1C,"inconclusive: 21.3 µM [inhibitor, partial curve]"
7,O=C(CSc1ncn[nH]1)N1N=C(c2ccc(Cl)cc2)CC1c1ccco1 (stereo not given),"inconclusive: 21.3 µM [inhibitor, partial curve]"
8,Cc1cccc(NC(=S)NC(=O)c2ccco2)n1,"inconclusive: 15.1 µM [inhibitor, partial curve]"
9,CC1CCN(C(=O)Nc2ccc3nc(-c4ccco4)c(-c4ccco4)nc3c2)CC1,active: 6.75 µM
10,Nc1nc2nn(-c3ccccc3)nc2c(=O)[nH]1,"inconclusive: 4.78 µM [inhibitor, partial curve]"
11,O=C(Nc1nc(-c2ccccn2)cs1)C1CC(=O)N(c2ccc3c(c2)OCCO3)C1 (stereo not given),active: 7.57 µM
12,CNc1cccc2c1C(=O)c1ccccc1C2=O,active: 1.69 µM
13,CS(=O)(=O)n1nc(OC(=O)c2cccs2)cc1N,"inconclusive: 19 µM [inhibitor, partial curve]"
14,CC1=CC(C)(C)n2c(O)c(C3=NC(=S)NC3=O)c3cc(OC(=O)c4cccc5ccccc45)cc1c32,"inconclusive: 6.01 µM [inhibitor, partial curve]"
15,Cc1ccc(C(=O)NCCn2c(N)c(C#N)c3nc4ccccc4nc32)cc1,"inconclusive: 1.9 µM [inhibitor, full curve]"
16,Cn1c(=O)[nH]c2nnc(-c3ccc(Cl)c(Cl)c3)nc2c1=O,"inconclusive: 19 µM [inhibitor, partial curve]"
17,Cc1ccc(Sc2ccc(CN3CCCCC3)cc2[N+](=O)[O-])cc1,"inconclusive: 16.9 µM [inhibitor, partial curve]"
18,COc1cccc(N2CCN(c3ccc4nnc(CCC(=O)Nc5cccc(C(C)=O)c5)n4n3)CC2)c1,inactive
19,CCC(=O)N1N=C(c2ccc(C)o2)CC1c1ccc(N(C)C)cc1 (stereo not given),"inconclusive: 15.1 µM [inhibitor, single point]"
20,COc1ccccc1CNC(=O)CCCc1cn(C)c2ccccc12,"inconclusive: 21.3 µM [inhibitor, partial curve]"
21,Cc1sc2nc3ccc(N4CCCCC4)nn3c(=O)c2c1C,"inconclusive: 13.5 µM [inhibitor, partial curve]"
22,COc1ccc(-c2noc(N3CCC(C(=O)Nc4cc(OC)ccc4OC)CC3)n2)cc1,"inconclusive: 19 µM [inhibitor, partial curve]"

# By substructure, the compounds so far with a thiophene ring, fused or not.
row,Compound,Potency
9,O=C(Cn1c(C(=O)N2CCc3ccccc3C2)cc2sccc21)c1ccccc1,inactive
16,Cc1csc(NC(=O)CSc2sc3c(O)cc(=O)[nH]c3c2C#N)n1,"inconclusive: 16.9 µM [inhibitor, partial curve]"
13,CS(=O)(=O)n1nc(OC(=O)c2cccs2)cc1N,"inconclusive: 19 µM [inhibitor, partial curve]"
21,Cc1sc2nc3ccc(N4CCCCC4)nn3c(=O)c2c1C,"inconclusive: 13.5 µM [inhibitor, partial curve]"
